# According to the supplement of paper PMC6411743:
# Protein sequences, listed by entry. Tags and fused reporters are not part of them. Lines headed by an entry give the natural chain unless they say otherwise; changes in a name come on top.
# UniProt Q9NUP9: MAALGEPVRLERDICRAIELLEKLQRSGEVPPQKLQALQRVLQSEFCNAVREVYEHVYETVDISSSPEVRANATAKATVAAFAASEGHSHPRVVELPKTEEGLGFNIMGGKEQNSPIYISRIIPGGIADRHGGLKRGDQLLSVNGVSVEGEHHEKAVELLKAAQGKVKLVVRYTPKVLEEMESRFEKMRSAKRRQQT
# UniProt Q9NXR7, whole entry: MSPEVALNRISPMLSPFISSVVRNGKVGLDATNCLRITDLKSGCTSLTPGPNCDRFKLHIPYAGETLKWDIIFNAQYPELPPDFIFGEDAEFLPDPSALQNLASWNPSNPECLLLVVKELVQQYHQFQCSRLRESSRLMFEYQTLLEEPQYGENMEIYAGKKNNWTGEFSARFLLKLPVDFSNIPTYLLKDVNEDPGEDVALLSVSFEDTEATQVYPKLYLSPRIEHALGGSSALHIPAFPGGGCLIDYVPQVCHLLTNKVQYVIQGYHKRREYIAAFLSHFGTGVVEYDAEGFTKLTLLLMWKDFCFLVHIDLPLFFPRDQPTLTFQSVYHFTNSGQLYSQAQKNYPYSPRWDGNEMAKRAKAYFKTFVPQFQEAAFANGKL
# UniProt Q9NWR8: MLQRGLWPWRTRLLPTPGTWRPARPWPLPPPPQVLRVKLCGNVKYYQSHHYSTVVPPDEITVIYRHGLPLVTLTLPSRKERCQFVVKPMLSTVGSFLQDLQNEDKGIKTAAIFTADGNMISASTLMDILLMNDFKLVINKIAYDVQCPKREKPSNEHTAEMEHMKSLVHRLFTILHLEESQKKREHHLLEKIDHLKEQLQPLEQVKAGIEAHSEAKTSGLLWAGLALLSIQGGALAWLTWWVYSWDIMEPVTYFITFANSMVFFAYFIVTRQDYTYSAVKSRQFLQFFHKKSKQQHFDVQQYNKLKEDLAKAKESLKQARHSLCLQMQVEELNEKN
# UniProt Q9UHA4, whole entry: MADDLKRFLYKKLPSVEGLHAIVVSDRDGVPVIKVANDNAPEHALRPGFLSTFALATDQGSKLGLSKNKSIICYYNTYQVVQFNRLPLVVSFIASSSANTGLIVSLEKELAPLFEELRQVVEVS
# UniProt Q9NVX2: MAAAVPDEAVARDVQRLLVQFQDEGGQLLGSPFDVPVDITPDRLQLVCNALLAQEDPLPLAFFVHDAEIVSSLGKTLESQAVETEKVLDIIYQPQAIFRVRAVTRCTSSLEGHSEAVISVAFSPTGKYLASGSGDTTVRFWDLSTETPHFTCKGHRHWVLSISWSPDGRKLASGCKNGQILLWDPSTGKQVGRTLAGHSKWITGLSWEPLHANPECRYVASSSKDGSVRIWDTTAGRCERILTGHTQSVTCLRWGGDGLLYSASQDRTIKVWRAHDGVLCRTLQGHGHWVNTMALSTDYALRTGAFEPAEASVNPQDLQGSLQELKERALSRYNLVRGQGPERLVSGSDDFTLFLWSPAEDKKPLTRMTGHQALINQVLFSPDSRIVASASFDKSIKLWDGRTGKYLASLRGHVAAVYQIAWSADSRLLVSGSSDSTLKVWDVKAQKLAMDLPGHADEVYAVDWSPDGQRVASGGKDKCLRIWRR
# ± gives the standard deviation of the averaged measurements. This is one part of the list.
# Compound: Nc1nc2c(ncn2[C@@H]2O[C@H](COP(=O)(O)OP(=O)(O)OP(=O)(O)O)[C@@H](O)[C@H]2O)c(=O)[nH]1 [guanosine triphosphate]
# Experiment: NP40-soluble protein abundance relative to vehicle (solubility fold change) (ratio); higher = more soluble protein in presence of GTP
# Procedure: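 Solubility proteome profiling in Jurkat crude lysate. Lysate was treated with Mg-GTP (0.1-10 mM) for 10 min at room temperature and 3 min at 37 °C, then solubilised with 0.8% NP40 and benzonase, followed by ultracentrifugation. Proteins were quantified by TMT10 LC-MS/MS; the value is the NP40-soluble abundance relative to the NP40-processed vehicle, from 3 independent experiments.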
Target,NP40-soluble protein abundance (concentration: 0.1mM),NP40-soluble protein abundance (concentration: 0.5mM),NP40-soluble protein abundance (concentration: 1mM),NP40-soluble protein abundance (concentration: 2mM),NP40-soluble protein abundance (concentration: 4mM),NP40-soluble protein abundance (concentration: 6mM),NP40-soluble protein abundance (concentration: 8mM),NP40-soluble protein abundance (concentration: 10mM)
UniProt Q9NUP9,0.888 ± 0.1,0.848 ± 0.078,1.01 ± 0.11,1.01 ± 0.017,1.02 ± 0.077,0.967 ± 0.062,0.929 ± 0.1,1.06 ± 0.09
UniProt Q9NXR7,1.07 ± 0.051,1.04 ± 0.058,1.06 ± 0.081,1.06 ± 0.069,1.11 ± 0.075,1.05 ± 0.067,1.08 ± 0.053,1.04 ± 0.026
UniProt Q9NWR8,1.06 ± 0.13,1.05 ± 0.099,0.987 ± 0.11,1.08 ± 0.12,1.05 ± 0.15,1.02 ± 0.05,1.02 ± 0.095,0.99 ± 0.11
UniProt Q9UHA4 and related entries,0.856 ± 0.094,0.878 ± 0.2,0.941 ± 0.07,0.856 ± 0.093,0.869 ± 0.093,0.865 ± 0.065,0.89 ± 0.13,0.842 ± 0.098
UniProt Q9NVX2 and related entries,1.01 ± 0.043,1.03 ± 0.066,0.9298 ± 0.0041,0.934 ± 0.098,0.934 ± 0.053,0.934 ± 0.036,0.897 ± 0.033,0.87 ± 0.087
